Laboratory results taken from PubChem BioAssay AID1487 (National Center for Advancing Translational Sciences (NCATS), 2009).
Several values for one entry are separate records, joined by “and”; a condition that tells them apart may be missing. Equal entries are not always repeated. Some of the results follow. Further columns of the screen follow, without active or inactive calls. Most of these compounds were active or inconclusive in the main read-out, so they are no random draw. Potencies come from curve fits of mixed quality, noted in brackets.

Experiment: qHTS Assay for Modulators of Lamin A Splicing
Conditions: HeLa LMNA splicing GFP/RFP minigene ratio, 48 h
Procedure, shortened: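 S3 HeLa stable clones carrying a lamin A-EGFP splicing minigene plus DsRed2 were seeded at 600 cells/well in Opti-MEM with 2% FBS, pin-dosed and incubated 48 h at 37°C. Acumen cytometry (488 nm) gave the GFP/RFP total-intensity ratio.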

[1] = measured here: GFP splicing reporter channel
[2] = measured here: RFP viability control channel

| SMILES | AC50 [1] | AC50 [2] |
| --- | --- | --- |
| Cc1cccc(C)c1NC(=O)C(C)c1ccc(-c2ccccc2)c(F)c1 (stereo unspecified) | 11.2 µM [rising, single point] | 25.1 µM [rising, single point] |
| COc1cc2c(=O)n(CCCN3CCOCC3)c(=S)[nH]c2c(OC)c1OC | – | 35.5 µM [rising, partial curve, poor fit] |
| Cc1c(C(=O)Nc2ccc(Cl)cc2)c2ccccn2c1CCc1ccncc1 | – | 15.8 µM [rising, single point] |
| Cc1c(C(=O)OCC2CCCO2)[nH]c2c1C(=O)CC(c1ccco1)C2 (stereo unspecified) | 7.94 µM [falling, partial curve] | 7.94 µM [falling, partial curve] |
| Cc1c(NC(=O)c2cc(-c3cccs3)on2)c(=O)n(-c2ccccc2)n1C | 14.1 µM [rising, single point] | – |
| Cc1ccc2[nH]c(-c3ccccc3)cc(=O)c2c1 | 3.98 µM [rising, full curve] | 3.16 µM [rising, full curve] |
| CCOCCCNC(=O)Cn1cnc2sc(C)c(S(=O)(=O)N3CCN(c4ncccn4)CC3)c2c1=O | 1.26 µM [rising, single point] | – |
| CCCCOC(=O)c1ccc(O)cc1 | 11.2 µM [falling, single point] and 89.1 nM [falling, full curve, poor fit] | 5.62 µM [rising, single point] and 35.5 µM [falling, partial curve, poor fit] |
| COC(=O)c1c(C)oc2ccc(N(C(=O)c3ccncc3)S(=O)(=O)c3ccc4ccccc4c3)cc12 | – | 5.62 µM [rising, single point] |
| CNCCCCOc1ccccc1Cc1ccccc1 | 0.00398 µM [falling, full curve, poor fit] | 0.00355 µM [falling, full curve, poor fit] |
| CCn1c(SCc2ccc(F)cc2Cl)nc(=O)c2c(C(=O)OC)cc(C3CC3)nc21 | – | 35.5 µM [falling, single point] |
| O=C(O)Cc1ccc(O)c(O)c1 | 6.31 µM [falling, partial curve, poor fit] | 3.55 µM [falling, single point] |
| CCOC(=O)C(=CNc1ccc2c(c1)nnn2-c1ccc(Cl)cc1)C(=O)OCC | 12.6 µM [rising, partial curve, poor fit] | – |
| COc1ccccc1CNc1nc2ccccc2n1CCN1CCCCC1 | 14.1 µM [rising, single point] | 35.5 µM [rising, single point] |
| COc1ccc(N2CCn3c2nc2c3c(=O)n(CCCc3ccccc3)c(=O)n2C)c(OC)c1 | 2.24 µM [rising, full curve] | 3.98 µM [rising, partial curve] |
| Cc1ccc(-c2cn3c(n2)sc2cc(C(=O)NCc4cccs4)ccc23)c(C)c1 | 8.91 µM [rising, partial curve] | – |
| CCC(O)c1ccccc1 (stereo unspecified) | 20 µM [falling, partial curve, poor fit] | 0.398 µM [falling, full curve, poor fit] |
| COc1ccc(Cn2ccc3nc(C)c(C(=O)N4CCN(c5ccccc5OC)CC4)cc3c2=O)cc1 | 0.0631 µM [falling, full curve] | 0.0708 µM [falling, full curve] |
| COc1ccc(-c2cc(C)nc3c(-c4ccccc4)cnn23)cc1 | 0.447 µM [rising, full curve, poor fit] | – |
| COc1cc2c(cc1NC(=O)Nc1ccc(F)cc1)oc1ccccc12 | – | 6.31 µM [rising, partial curve] |
| COC(=O)C1CCN(c2cc(Cl)nc(N)n2)CC1 | – | 5.01 µM [falling, partial curve] |
| Cc1c(C(=O)N2CCCC2)sc(NC(=O)c2cccc(Cl)c2)c1C#N | – | 31.6 µM [rising, single point] |
| CC(=O)c1cccc(NC(=O)N2C3CCC2CC(NC(=O)C2CC2)C3)c1 (stereo unspecified) | 0.141 µM [rising, full curve] | – |
| CCCc1nc2c(C)cc(-c3nc4ccccc4n3C)cc2n1Cc1ccc(-c2ccccc2C(=O)O)cc1 | – | 0.000794 µM [rising, full curve, poor fit] |
| CC(C)c1ccc(OCc2nc(-c3ccccn3)no2)c(Br)c1 | 7.94 µM [rising, partial curve] | 15.8 µM [rising, single point] |
| COc1ccc(Cl)cc1NC(=O)CSc1nc(=O)[nH]c2c1CCCC2 | – | 0.00501 µM [falling, full curve] |
| COc1ccc(S(=O)(=O)N2CCCC2)c(Cl)c1Cl | – | 0.398 µM [falling, partial curve] |

Record cards, from the list above.
COc1ccc(N2CCn3c2nc2c3c(=O)n(CCCc3ccccc3)c(=O)n2C)c(OC)c1 in the list: AC50 [1]: 2.24 µM [rising, full curve]; AC50 [2]: 3.98 µM [rising, partial curve]
CCC(O)c1ccccc1 (stereo unspecified) in the list: AC50 [1]: 20 µM [falling, partial curve, poor fit]; AC50 [2]: 0.398 µM [falling, full curve, poor fit]
COc1cc2c(=O)n(CCCN3CCOCC3)c(=S)[nH]c2c(OC)c1OC in the list: AC50 [2]: 35.5 µM [rising, partial curve, poor fit]

More results:

| SMILES | AC50 [1] | AC50 [2] |
| --- | --- | --- |
| Cc1nc2ccccc2c2oc(C(=O)N3CCC(N4CCCCC4)CC3)cc12 | – | 10 µM [rising, partial curve] |
| O=C(NCc1ccc2c(c1)OCO2)c1ccc(Cl)c(S(=O)(=O)NCc2ccccc2)c1 | 3.55 µM [rising, single point] | 15.8 µM [rising, single point] |
| Cc1ccc(C)c2[nH]c(=O)c(CCNC(=O)Cc3cccs3)cc12 | – | 7.08 µM [falling, full curve, poor fit] |
| CCOC(=O)C(=CNc1ccc(NC2=NCC(C)S2)cc1)C(=O)OCC (stereo unspecified) | 7.94 µM [rising, partial curve] | 14.1 µM [rising, partial curve, poor fit] |
| CN(C)c1ccc(-c2ccc3ncnc(N(C)Cc4ccco4)c3c2)cc1 | 3.98 µM [falling, full curve] | 4.47 µM [falling, full curve] |
| COc1cc(Cl)c(NC(=O)CN(C)S(=O)(=O)c2ccc3c(c2)CCCC(=O)N3)c(OC)c1 | – | 35.5 µM [rising, partial curve, poor fit] |
| CN(C)CCOc1ccccc1Cc1ccccc1 | – | 0.02 µM [falling, full curve, poor fit] |
| Clc1ccc(CNc2ccc(CNc3ncn[nH]3)cc2)cc1 | 14.1 µM [rising, partial curve] | 35.5 µM [rising, single point] |
| COc1ccc(NC(=O)c2cc(C)nc3c2c(C)nn3-c2cccc(Cl)c2C)c(OC)c1 | 5.01 µM [falling, single point] | 0.251 µM [falling, partial curve, poor fit] |
| Cc1[nH]n(-c2ccccc2)c(=O)c1/C=N/NC(=O)COc1ccccc1[N+](=O)[O-] | – | 25.1 µM [rising, single point] |
| Cc1nn(C)c(C)c1S(=O)(=O)N1CCCC(C(=O)NC2CCCCCC2)C1 (stereo unspecified) | 14.1 µM [rising, single point] | 11.2 µM [rising, partial curve] |
| O=C1COc2cc(S(=O)(=O)CCC(=O)N3CCN(c4ccccc4)CC3)c(Cl)cc2N1 | 0.00316 µM [falling, full curve, poor fit] | 0.00316 µM [falling, full curve, poor fit] |
| COc1ccc(/C=N\NC(=O)COc2ccc(Cl)cc2Cl)c(C(=O)O)c1OC | – | 35.5 µM [rising, single point] |
| CCS(=O)(=O)c1cccc(C(=O)N2CCN(c3nc4c(C)ccc(Cl)c4s3)CC2)c1 | 0.00891 µM [falling, full curve] | 0.00447 µM [falling, full curve, poor fit] |
| COC(=O)/C=C/C(=O)Nc1cccc(C(F)(F)F)c1 | 3.98 µM [rising, single point] | 3.16 µM [rising, single point] |
| COc1ccc(NS(=O)(=O)c2ccc(NC(=S)NC(=O)C(C)C)cc2)cc1 | 11.2 µM [rising, partial curve, poor fit] | – |
| N#Cc1ccc(CSc2ncnc3c2cnn3Cc2ccccc2)cc1 | – | 15.8 µM [rising, single point] |
| COC(=O)c1ccc(CSc2nc3c([nH]c4ccccc43)c(=O)n2-c2cc(C)cc(C)c2)o1 | – | 11.2 µM [falling, partial curve, poor fit] |
| CCCCCCCCCc1nc2sc3c(c2c(=O)n1NC(=O)c1ccccc1[N+](=O)[O-])CC(C)(C)OC3 | – | 12.6 µM [rising, single point] |
| Cc1cccc(-c2onc3ccc(C4(C)OCCO4)cc23)c1 | 14.1 µM [rising, single point] | 15.8 µM [rising, single point] |
| CSc1cccc(NC(=O)C2CCCN(S(=O)(=O)c3ccc(F)cc3)C2)c1 (stereo unspecified) | – | 12.6 µM [rising, partial curve, poor fit] |
| CCOC(=O)c1c(C)[nH]c(C(=O)COC(=O)c2ccncc2)c1C | 22.4 µM [falling, partial curve, poor fit] | 1.26 µM [falling, partial curve, poor fit] |
| CC(C)(C)C(=O)N1CCN(c2ccc(Cl)cc2[N+](=O)[O-])CC1 | – | 12.6 µM [rising, partial curve, poor fit] |
| CCC1CCCCN1C(=S)Nc1ccc(OC(F)F)cc1 (stereo unspecified) | 10 µM [rising, single point] | 20 µM [rising, partial curve] |
| Cc1ccn2c(-c3csc(NCc4ccco4)n3)c(C)nc2c1 | – | 35.5 µM [rising, single point] |
| COc1ccc(Cl)cc1C(=O)Nc1c2c(nn1-c1ccc(Cl)cc1)CS(=O)(=O)C2 | 0.00355 µM [falling, full curve, poor fit] | – |
